This is one part of the list.
Molecular target: OsWRKY34 (Oryza sativa, UniProt Q0JBA9 1-250)
Test: protein-binding microarray (RPBM); PBS, 2% BSA, 51.3 ng/ul salmon testes DNA, 50 uM zinc acetate, 200 nM TF, 25 C, 1 h; high values mean tight binding
Conditions: protein: recombinant; tags: N-terminal polyhistidine and DsRed monomer fusion (pET32a); label: CyDye5-dUTP incorporated in the synthesized complementary strand; 3' TTTTT single-stranded linker to array surface; dsDNA, one strand shown
Outline: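 The binding signal for each feature is its fluorescence intensity in arbitrary units. An Axon 4000B scanner was used to read a custom Agilent array that had been made double-stranded with Cy5-dUTP primer extension, blocked with 2% BSA, incubated at 25 °C for 1 h with 200 nM protein in PBS, 2% BSA, salmon testes DNA and 50 µM zinc acetate, and washed. The protein was an N-terminal polyhistidine–DsRed transcription factor fusion from E. coli BL21-CodonPlus, purified on Ni–NTA.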

The chains behind the UniProt entries cited, without tags or fusion partners.
UniProt Q0JBA9, entry or part of it: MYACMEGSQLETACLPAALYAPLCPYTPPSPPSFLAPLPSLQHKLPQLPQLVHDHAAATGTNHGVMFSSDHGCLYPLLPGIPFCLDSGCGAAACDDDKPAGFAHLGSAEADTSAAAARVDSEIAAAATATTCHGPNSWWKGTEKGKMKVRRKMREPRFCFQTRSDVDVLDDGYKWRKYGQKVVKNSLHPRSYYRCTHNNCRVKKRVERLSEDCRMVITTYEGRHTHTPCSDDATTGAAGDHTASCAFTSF

Sequence | binding signal
TCTCTCTCGCCGCCGACTCGCCTCACCCGCCGCTATATATCGGAGTCACCTAGTGCAG | 13500 fluorescence intensity (a.u.)
CTCATCTCCACAAGGACACCCCAGCCCACCACTCATCGGCCGGAGTCACCTAGTGCAG | 8060 fluorescence intensity (a.u.)
AACTACATATTGTATATACTTTCATCTAACACTGCTGTCACGGAGTCACCTAGTGCAG | 10400 fluorescence intensity (a.u.)
AGTGTCTGACACTACTTAAGAAACCATAGCAGTGCTAAAGCGGAGTCACCTAGTGCAG | 31200 fluorescence intensity (a.u.)
TCTCACCATCCAGTGGTCACTGCTCCTCCTTCCTTTCCTTCGGAGTCACCTAGTGCAG | 8360 fluorescence intensity (a.u.)
CCTCGTGTCATTCTGTCGCTATCTCGTTATGGGTTATGGGCGGAGTCACCTAGTGCAG | 14000 fluorescence intensity (a.u.)
ACCCGCACACCGTCCCGTGCCAGCTGCCTCGCCACCGTTCCGGAGTCACCTAGTGCAG | 11900 fluorescence intensity (a.u.)
CGGTGGGTCTCAAGTTCTGAACTTTCTGTCAAGCGTCCGACGGAGTCACCTAGTGCAG | 9020 fluorescence intensity (a.u.)
CTCCACCGCTATCTCATTTGTCTATGTTCGAGCCATTATTCGGAGTCACCTAGTGCAG | 11200 fluorescence intensity (a.u.)
AGTGAACTTTTTTCCCTGTCCCTGTGCTTTCTAATCCCAGCGGAGTCACCTAGTGCAG | 9370 fluorescence intensity (a.u.)
CATTCATCAATCGTCGCCTGATCGCCTCCAGCGAAATTCTCGGAGTCACCTAGTGCAG | 8130 fluorescence intensity (a.u.)
ACCGTCACCTGGATCCGCAACCGCGCCGCCGTCGCCCGCGCGGAGTCACCTAGTGCAG | 8540 fluorescence intensity (a.u.)
TTTTAGGGTTATGGCCGTTGTCTTTCAATTTGAACCAGTTCGGAGTCACCTAGTGCAG | 8710 fluorescence intensity (a.u.)
CCAATTTCTTTCTCTCTTCACTCTTTCTCTTAGTTAATATCGGAGTCACCTAGTGCAG | 9550 fluorescence intensity (a.u.)
ACTTTTTAGCCCATGTCACATCGGATGTTTGGACGTTAATCGGAGTCACCTAGTGCAG | 9010 fluorescence intensity (a.u.)
TTGTAAATTTTTTTCGTTTGTAAATATACCGTTTGGTTTACGGAGTCACCTAGTGCAG | 8500 fluorescence intensity (a.u.)
TCTACTGTCATGCTTCCTTGTCCCATTATTACATCGTCGTCGGAGTCACCTAGTGCAG | 14200 fluorescence intensity (a.u.)
TTGATCCTGCTTTTAGTTATAGTTTTTGTTAGGGTGTATTCGGAGTCACCTAGTGCAG | 10100 fluorescence intensity (a.u.)
TGCTCCACCACCGCGTCCTCCTGCTCCTCGAACTCCAACCCGGAGTCACCTAGTGCAG | 8590 fluorescence intensity (a.u.)
AATGTTGTTTGGCTTATGTGTTCCTTATTTCCATCATCTGCGGAGTCACCTAGTGCAG | 10800 fluorescence intensity (a.u.)
CTTCTCTGTTATCATCGTATATACTACATATTTTACATTGCGGAGTCACCTAGTGCAG | 9820 fluorescence intensity (a.u.)

Sequence | binding signal
GGATCATTTTTCGGCCCTACGCGCGGCCTCCCTCCCGGGACGGAGTCACCTAGTGCAG | 8540 fluorescence intensity (a.u.)
GCTCGTTCATTCATTTTCTCTAAACCCCGATCATTATCCGCGGAGTCACCTAGTGCAG | 9330 fluorescence intensity (a.u.)
ACCCCTGCTTTATCCTCAACCTCATGCACAGGTAAATATCCGGAGTCACCTAGTGCAG | 8310 fluorescence intensity (a.u.)
AGTGGTAAAAGATCCTATATAGTGAAAAAAATAGACAGCGCGGAGTCACCTAGTGCAG | 8160 fluorescence intensity (a.u.)
GGAAGATTACCCTGTTTACCACTCACTGTACGATGATTATCGGAGTCACCTAGTGCAG | 9260 fluorescence intensity (a.u.)
CGCCCTATATATACAAACAACTCTTGCTTCCCACAATCTCCGGAGTCACCTAGTGCAG | 8280 fluorescence intensity (a.u.)
ATGCGTGACTTGTTTTTTTAATTTTTTTTTATATTTTTTTCGGAGTCACCTAGTGCAG | 12000 fluorescence intensity (a.u.)
AGCACCGTACATACCATATCCACCTCCAGTAGTCAAAGCACGGAGTCACCTAGTGCAG | 8940 fluorescence intensity (a.u.)
CACCTCAATCAGAAACATGGCATCGAACACTTGCGATATACGGAGTCACCTAGTGCAG | 10000 fluorescence intensity (a.u.)
CGTTCTTTCTCTCCCAGCCGTCGTTTCTGTTCTCCCTCTCCGGAGTCACCTAGTGCAG | 9830 fluorescence intensity (a.u.)
TCCTTCTTGTTGCCAATCTTTGAACTCAATATCTCTCGAGCGGAGTCACCTAGTGCAG | 9540 fluorescence intensity (a.u.)
TTTCATGTTTTTTCACCCTTTTTCGTTATTACGAACGACGCGGAGTCACCTAGTGCAG | 9110 fluorescence intensity (a.u.)
AGTTTTTGTTTTTATCTATATTTGATGCTCTATACATGTGCGGAGTCACCTAGTGCAG | 8860 fluorescence intensity (a.u.)
CATCCTCTTCCACCTCTCGCGCTCACGCCATTTATACTCTCGGAGTCACCTAGTGCAG | 11100 fluorescence intensity (a.u.)
TTTTGATTGCACCTTGCTTCTCGTATACACCCTCACCTATCGGAGTCACCTAGTGCAG | 12600 fluorescence intensity (a.u.)
AAGCACCTTGGCGACGCATGTGGTCAACAAGCTCCTCGGCCGGAGTCACCTAGTGCAG | 8050 fluorescence intensity (a.u.)
TCTGGTTTTGTAGTTTAGGGTTATGGTTTAGATTTCGATCCGGAGTCACCTAGTGCAG | 10300 fluorescence intensity (a.u.)
ATGTTTTGGTTATGTGCATTTTAGCTATGCAGAGATAGAACGGAGTCACCTAGTGCAG | 9030 fluorescence intensity (a.u.)
CTCCTCTTTGTGTGTAGACTGAAAAGGTGGAAAGTTTACCCGGAGTCACCTAGTGCAG | 9750 fluorescence intensity (a.u.)
CCGACCGTTCTCCGGCAGCGCTTTGTACCGATTGTTGATACGGAGTCACCTAGTGCAG | 9420 fluorescence intensity (a.u.)
GCCCCAACCTCGTCGCTACCCGCGAGCCTCGGCTTATCGACGGAGTCACCTAGTGCAG | 65100 fluorescence intensity (a.u.)

Rewritten with tabs: entries from further up
Sequence	binding signal
AGTGAACTTTTTTCCCTGTCCCTGTGCTTTCTAATCCCAGCGGAGTCACCTAGTGCAG	9370 fluorescence intensity (a.u.)
TTTTAGGGTTATGGCCGTTGTCTTTCAATTTGAACCAGTTCGGAGTCACCTAGTGCAG	8710 fluorescence intensity (a.u.)
ATGCGTGACTTGTTTTTTTAATTTTTTTTTATATTTTTTTCGGAGTCACCTAGTGCAG	12000 fluorescence intensity (a.u.)
TTTCATGTTTTTTCACCCTTTTTCGTTATTACGAACGACGCGGAGTCACCTAGTGCAG	9110 fluorescence intensity (a.u.)
AGTTTTTGTTTTTATCTATATTTGATGCTCTATACATGTGCGGAGTCACCTAGTGCAG	8860 fluorescence intensity (a.u.)
CCGACCGTTCTCCGGCAGCGCTTTGTACCGATTGTTGATACGGAGTCACCTAGTGCAG	9420 fluorescence intensity (a.u.)

Additional records:

Sequence | binding signal
CGCGTCCTCGAGCTCGGCTAATTAACGATACTTTTACTGACGGAGTCACCTAGTGCAG | 9400 fluorescence intensity (a.u.)
CTTCTCCGGTCAAGCTTGGCTGCTTTGTCGAGATGTATAACGGAGTCACCTAGTGCAG | 8040 fluorescence intensity (a.u.)
ATTTATCTTTGGCCTTAATCTTGCTTCTCTTCTTTTTCACCGGAGTCACCTAGTGCAG | 10100 fluorescence intensity (a.u.)
CATGAACACCACATGCATTTGTCCTGCATGTCAACTACTCCGGAGTCACCTAGTGCAG | 10300 fluorescence intensity (a.u.)
GGATCGACTATTTTACAGGTAACCTTATCGTTATTTTCTACGGAGTCACCTAGTGCAG | 9900 fluorescence intensity (a.u.)
TTTCATTTGTTCAGTCATGAATTGTTATTGCAATATATTCCGGAGTCACCTAGTGCAG | 11100 fluorescence intensity (a.u.)
GATCTGTACTTATGAATTTTATGGCTATTTATGGGTTGGTCGGAGTCACCTAGTGCAG | 10400 fluorescence intensity (a.u.)
GCATCCTTTTCATTGGCCTTTGCGTGTAATTTGGGGCATGCGGAGTCACCTAGTGCAG | 9230 fluorescence intensity (a.u.)
CATATCCCTTTTCACCTTTTTGCCAGAATTAACATATTTCCGGAGTCACCTAGTGCAG | 9840 fluorescence intensity (a.u.)
ACTTTTATTTTTCCGCTTTTAATTGCTACAACCTCCCGCGCGGAGTCACCTAGTGCAG | 8810 fluorescence intensity (a.u.)
TGCTAGAATCCGATTCGGCCACCTACTACATTGCTGAATTCGGAGTCACCTAGTGCAG | 8790 fluorescence intensity (a.u.)
TTGCACACATTTTCCACCCACACAAATAATTAACTCCAAACGGAGTCACCTAGTGCAG | 8450 fluorescence intensity (a.u.)
ATAGCAACCGACCTAGCCCGGCCCCACACGCTTCGCATCCCGGAGTCACCTAGTGCAG | 8320 fluorescence intensity (a.u.)
TCAGAATCATGTTTTTTTTATTCCTCCGTTTTTTTTATTCCGGAGTCACCTAGTGCAG | 8070 fluorescence intensity (a.u.)
TTTCTAGGTTTAAACTTGGATATATCTTGTGTTCATATTCCGGAGTCACCTAGTGCAG | 8890 fluorescence intensity (a.u.)
GGTTGGGTTGGGCCATGTAAAATAAGGGTTACGATGGGCTCGGAGTCACCTAGTGCAG | 9670 fluorescence intensity (a.u.)
AGTTGTATTTGTAATGTGAACTACCCTCTCCGTCCCAAAACGGAGTCACCTAGTGCAG | 8110 fluorescence intensity (a.u.)
GTTCGATATCCCCGTGCAGAGGCAAGGCGGCGGGTCTCCCCGGAGTCACCTAGTGCAG | 9860 fluorescence intensity (a.u.)
GCTGCGTCGCTCGATTTGTTTGTCGTACCGTTGTCGCGATCGGAGTCACCTAGTGCAG | 8820 fluorescence intensity (a.u.)
TTTTGTATTTCCTCTCGTAGACTTTCTTTGGTCTTACATTCGGAGTCACCTAGTGCAG | 8880 fluorescence intensity (a.u.)
CACTTTGGGTCCCTCTATTTTTCGCCCATTCCGATTTTCACGGAGTCACCTAGTGCAG | 10300 fluorescence intensity (a.u.)

Sequence | binding signal
CACCACCACCCACCTCGTCTTCTTCTTCGCTAAGCCTAAACGGAGTCACCTAGTGCAG | 8160 fluorescence intensity (a.u.)
ACAATATTATATCCAACGTCAACACCAGACTATATCAATGCGGAGTCACCTAGTGCAG | 9010 fluorescence intensity (a.u.)
ACTCTCTCGTTCTCTCTCCCAGGCTCCCAGCCGGCGTTGCCGGAGTCACCTAGTGCAG | 12100 fluorescence intensity (a.u.)
TAAATTACACGTTCAACTTTATTGTTTTTACTATTTTATACGGAGTCACCTAGTGCAG | 9420 fluorescence intensity (a.u.)
GTTTACTCTTTATTCCCATGTTCTGGATTTTTTTTCACCTCGGAGTCACCTAGTGCAG | 13300 fluorescence intensity (a.u.)
GGCCAGAACGAATCGTATCCTTTTTTTTTTCTGTTCCTTTCGGAGTCACCTAGTGCAG | 9160 fluorescence intensity (a.u.)
GCTGGCCGGCCTCCCCGCTCGCCGCCGCCGCCGCCGCATGCGGAGTCACCTAGTGCAG | 8180 fluorescence intensity (a.u.)
TTTTCCTCCGTTCTCCGCCCACGCGCCGTCATCGCTGCCCCGGAGTCACCTAGTGCAG | 9020 fluorescence intensity (a.u.)
CCGTACTCCGCCCTCGCTTCCCTATTCCCTTTTTCCTTTTCGGAGTCACCTAGTGCAG | 9810 fluorescence intensity (a.u.)
CACCACCACCCGGGGCCCATGCTGTACGCGGCGGCGCCCGCGGAGTCACCTAGTGCAG | 9440 fluorescence intensity (a.u.)
ATATTGTTTTTTTTTCTCTCATCTTGCATACGCATGCATGCGGAGTCACCTAGTGCAG | 11200 fluorescence intensity (a.u.)
ACGCTATTTAAACTGCTAAACGCTACTCTTTTTGTCCCATCGGAGTCACCTAGTGCAG | 9020 fluorescence intensity (a.u.)
ATGGTGTTCCCGCTCCCGCGCCCGCCGTGGCGCCGGCGCCCGGAGTCACCTAGTGCAG | 9180 fluorescence intensity (a.u.)
CCGCCACTCTTTTTTTTTTTCTCCCGCGAAAATCACGTGACGGAGTCACCTAGTGCAG | 11000 fluorescence intensity (a.u.)
CCCGCGCCGCCACCCCACCCCACCCCACCCCACGCCGTCTCGGAGTCACCTAGTGCAG | 9140 fluorescence intensity (a.u.)
AATAATGGCTTTCGTTGTCCTTGTCACATCATAAACTTCTCGGAGTCACCTAGTGCAG | 9720 fluorescence intensity (a.u.)
GGTTGGGTGGAGGGTATTACAGTCTTTTTGCTTTTGTATTCGGAGTCACCTAGTGCAG | 36600 fluorescence intensity (a.u.)
TAATTACAACTCTTCGTTTTTTTATATTTGCATAAATTTTCGGAGTCACCTAGTGCAG | 10100 fluorescence intensity (a.u.)
TGGTTATGGTATGGTATGTTCCTGCAGTTATGCCGATCCCCGGAGTCACCTAGTGCAG | 8620 fluorescence intensity (a.u.)
AGGCTCTTAATTCGTATTTTCCCATTCACCTAACAGAAATCGGAGTCACCTAGTGCAG | 8740 fluorescence intensity (a.u.)
AATAAGACGAACGGTCAAATATTTTTTAAAAAGTCAACGGCGGAGTCACCTAGTGCAG | 10300 fluorescence intensity (a.u.)

Reference: publication PMC7819943, “Rice protein-binding microarrays: a tool to detect cis-acting elements near promoter regions in rice”
